Among all 350,000 compounds or so, about 220 (0.063%) were called active. Inconclusive means that the source gave no clear call. Such entries were picked first, then a sample of the others. The call rests on the fitted dose curve; in most records, active means well fitted activation curve with a large enough effect; inconclusive means small, poorly fitted or top-dose-only effect; inactive means no such curve, though single readings can be large or run the other way. A potency beside an inconclusive call is a rough fit, not a confirmed value.
Test: qHTS for Activators of Integrin-Mediated Alleviation for Muscular Dystrophy; further: nearly all actives have a fitted effect of over 60% in size;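 on activation: 100% = response of the positive control SU9516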
Conditions: alpha7betagal myoblasts, beta-gal FDG fluorescence, 48 h; activation: at 38.3 µM (top of the series)
Summary of the method: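 Alpha7betagal+/- myoblasts (passage 13) were plated 16-24 hr, then exposed to compounds (1:260 dilution of DMSO stock) for 48 hours at 37C. After MPER lysis, β-galactosidase reporter activity was read as FDG fluorescence (ex 480/em 540) after 30 minutes.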
Potency means the concentration at half of the fitted maximal effect.

Compound	activation	Potency
CCCOc1ccccc1/C=N/NC(=O)C1CC1	inactive: 5.82%	–
COc1ccc(C(=O)N/C(=C\c2cn(C)c3ccccc23)C(=O)NCCCn2ccnc2)cc1	–	inconclusive: 3.98 µM [activator, single point]
COc1ccc(OC)c(Cc2nnc(CCC(=O)N3CCC(N4CCCCC4)CC3)o2)c1	–	inconclusive: 11.2 µM [activator, single point]
O=S(=O)(Nc1cccc2cccnc12)c1ccccc1	inactive: -72.8%	–
COc1ccc(OCCCC(=O)OCC(=O)N2CCN(S(=O)(=O)c3ccc(C)cc3C)CC2)cc1	–	inconclusive: 3.55 µM [activator, single point]
CC(CC(=O)N(C)C1CCCCC1)S(=O)(=O)c1ccc2c(c1)NC(=O)CO2 (centres undefined)	–	inconclusive: 2.82 µM [activator, partial curve, poor fit]
c1ccc(CNc2nc(NCc3ccco3)nc(N3CCOCC3)n2)cc1	–	inconclusive: 3.16 µM [activator, single point]
c1csc(-c2nc(NCCCN3CCOCC3)c3ccccc3n2)c1	–	inconclusive: 28.2 µM [activator, single point]
CCOC(=O)N1CC=C2C(C#N)=C(N)C(C#N)(C#N)[C@H](c3cccs3)C2C1 (some centres undefined)	inactive: -27.6%	–
CCc1nc(Nc2ccc(OC)c(OC)c2)c2nnn(Cc3ccccc3Cl)c2n1	inactive: -13.3%	–
COC(=O)c1[nH]c2ccc(C)cc2c1NC(=O)C1=COCCO1	–	inconclusive: 0.501 µM [activator, full curve, poor fit]
CC(C)CCN(Cc1ccco1)S(=O)(=O)c1ccc(-c2ccc(=O)[nH]n2)s1	–	inconclusive: 5.01 µM [activator, single point]
CC(C)(C)c1nnc(NC(=O)c2ccc3c(c2)OCO3)s1	–	inconclusive: 5.01 µM [activator, single point]
O=C(Sc1ccc(Cl)cc1)c1ccccn1	inactive: 7.54%	–
O=C(NNC(=O)c1ccccc1O)c1ccco1	–	inconclusive: 5.01 µM [activator, single point]
Cc1ccc(S(=O)(=O)c2c(N)n(Cc3ccco3)c3nc4ccccc4nc23)cc1C	inactive: 3.83% [at 7.66 µM]	–
CC(=O)Nc1ccc(S(=O)(=O)N2CCC(C(=O)NCCc3c[nH]c4ccccc34)CC2)cc1	–	inconclusive: 10 µM [activator, single point]
COc1ccc(-c2ocnc2C(=O)Nc2ccc3c(c2)CCC3)cc1	–	inconclusive: 10 µM [activator, single point]
Cc1snnc1C(=O)NC(=S)Nc1ccccc1	–	inconclusive: 2.82 µM [activator, single point]

Entries of single compounds, looked up by structure.
c1ccc(CNc2nc(NCc3ccco3)nc(N3CCOCC3)n2)cc1 in the list: Potency: inconclusive: 3.16 µM [activator, single point]
CCCOc1ccccc1/C=N/NC(=O)C1CC1 in the list: activation: inactive: 5.82%

Source: PubChem BioAssay AID624291 (National Center for Advancing Translational Sciences (NCATS), 2012)
